The record followed here is patent US9644010B2 (ONCOTHERAPY SCIENCE, INC., priority 2012, dated 2017).

This series is described as follows: peptide made by a vendor. As to conditions: whole synthesis.

Plain letter strings leave the end groups untold.

RYCNLEGPPI: the “purity (crude or final not stated)” value is given as “purity>95%”.
